Publication PMC12867140

Protein sequences, listed by entry. Tags and fused reporters are not part of them.
UniProt Q9UPN9: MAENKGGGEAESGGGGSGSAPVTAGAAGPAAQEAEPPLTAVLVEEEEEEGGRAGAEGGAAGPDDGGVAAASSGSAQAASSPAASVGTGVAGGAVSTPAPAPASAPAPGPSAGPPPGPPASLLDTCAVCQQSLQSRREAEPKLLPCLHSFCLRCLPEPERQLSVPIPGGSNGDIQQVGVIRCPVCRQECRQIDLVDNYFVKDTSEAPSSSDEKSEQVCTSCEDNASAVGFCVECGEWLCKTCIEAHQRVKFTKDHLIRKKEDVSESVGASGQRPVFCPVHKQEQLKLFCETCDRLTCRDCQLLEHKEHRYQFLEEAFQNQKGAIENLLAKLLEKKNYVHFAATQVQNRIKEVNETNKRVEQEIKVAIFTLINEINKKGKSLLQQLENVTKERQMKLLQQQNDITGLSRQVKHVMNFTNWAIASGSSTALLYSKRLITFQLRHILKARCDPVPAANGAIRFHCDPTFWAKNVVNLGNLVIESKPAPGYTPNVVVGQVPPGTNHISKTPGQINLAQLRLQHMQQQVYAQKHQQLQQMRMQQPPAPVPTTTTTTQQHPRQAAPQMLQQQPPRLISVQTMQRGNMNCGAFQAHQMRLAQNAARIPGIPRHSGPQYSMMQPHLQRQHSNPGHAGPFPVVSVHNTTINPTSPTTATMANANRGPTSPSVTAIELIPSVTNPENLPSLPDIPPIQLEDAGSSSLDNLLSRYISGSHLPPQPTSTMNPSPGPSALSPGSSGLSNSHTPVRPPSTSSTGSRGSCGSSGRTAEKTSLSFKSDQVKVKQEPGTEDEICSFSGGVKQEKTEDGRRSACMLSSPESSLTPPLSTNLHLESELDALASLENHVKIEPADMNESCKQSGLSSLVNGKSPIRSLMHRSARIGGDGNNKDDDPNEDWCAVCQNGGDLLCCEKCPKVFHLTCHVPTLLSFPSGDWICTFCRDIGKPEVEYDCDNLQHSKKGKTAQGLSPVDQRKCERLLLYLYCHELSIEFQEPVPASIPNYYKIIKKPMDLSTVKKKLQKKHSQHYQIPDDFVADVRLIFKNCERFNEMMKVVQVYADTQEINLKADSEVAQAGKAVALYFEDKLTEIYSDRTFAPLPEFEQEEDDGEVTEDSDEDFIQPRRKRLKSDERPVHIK
UniProt Q9UNE7: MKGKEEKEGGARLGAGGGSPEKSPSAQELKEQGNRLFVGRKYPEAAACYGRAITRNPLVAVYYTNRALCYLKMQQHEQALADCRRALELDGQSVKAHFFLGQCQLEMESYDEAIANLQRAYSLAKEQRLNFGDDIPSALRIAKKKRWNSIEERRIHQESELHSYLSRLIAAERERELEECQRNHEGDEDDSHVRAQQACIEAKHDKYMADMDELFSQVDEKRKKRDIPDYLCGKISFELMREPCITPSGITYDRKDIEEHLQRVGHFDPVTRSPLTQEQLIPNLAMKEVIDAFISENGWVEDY
UniProt P46934: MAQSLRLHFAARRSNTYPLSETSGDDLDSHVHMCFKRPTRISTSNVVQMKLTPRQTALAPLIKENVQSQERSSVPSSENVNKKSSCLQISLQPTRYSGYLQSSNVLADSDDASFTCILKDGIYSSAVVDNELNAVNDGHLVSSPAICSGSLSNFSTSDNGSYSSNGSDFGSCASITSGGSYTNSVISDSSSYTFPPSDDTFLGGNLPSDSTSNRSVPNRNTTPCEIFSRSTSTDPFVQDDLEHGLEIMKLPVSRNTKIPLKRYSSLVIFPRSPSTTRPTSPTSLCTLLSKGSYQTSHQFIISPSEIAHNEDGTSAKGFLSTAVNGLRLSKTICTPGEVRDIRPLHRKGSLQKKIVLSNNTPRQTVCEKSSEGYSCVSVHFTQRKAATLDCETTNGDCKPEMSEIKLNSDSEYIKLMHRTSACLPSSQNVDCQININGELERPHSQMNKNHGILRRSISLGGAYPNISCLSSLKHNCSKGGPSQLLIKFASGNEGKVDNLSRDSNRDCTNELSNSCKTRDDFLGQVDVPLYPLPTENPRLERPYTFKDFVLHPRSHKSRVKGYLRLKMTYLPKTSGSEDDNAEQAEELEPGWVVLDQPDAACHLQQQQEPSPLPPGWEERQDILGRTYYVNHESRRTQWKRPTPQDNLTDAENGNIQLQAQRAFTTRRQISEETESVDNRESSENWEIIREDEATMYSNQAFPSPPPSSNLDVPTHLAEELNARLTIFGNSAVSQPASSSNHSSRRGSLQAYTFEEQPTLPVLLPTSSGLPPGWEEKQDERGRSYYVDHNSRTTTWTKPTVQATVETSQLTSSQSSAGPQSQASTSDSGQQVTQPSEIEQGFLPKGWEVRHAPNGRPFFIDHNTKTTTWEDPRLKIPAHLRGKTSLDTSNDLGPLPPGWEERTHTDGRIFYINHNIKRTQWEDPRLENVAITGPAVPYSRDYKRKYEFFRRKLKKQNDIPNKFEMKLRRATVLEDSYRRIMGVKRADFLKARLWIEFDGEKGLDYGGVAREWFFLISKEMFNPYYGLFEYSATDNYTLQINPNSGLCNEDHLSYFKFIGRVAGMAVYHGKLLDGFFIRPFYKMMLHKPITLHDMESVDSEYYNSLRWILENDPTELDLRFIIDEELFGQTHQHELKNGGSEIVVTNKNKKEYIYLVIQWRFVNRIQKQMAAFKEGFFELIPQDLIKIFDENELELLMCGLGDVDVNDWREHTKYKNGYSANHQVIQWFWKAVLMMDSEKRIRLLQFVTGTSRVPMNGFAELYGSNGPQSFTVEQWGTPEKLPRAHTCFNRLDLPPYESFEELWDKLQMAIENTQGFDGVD

Target: c-Myc (human (endogenous in PANC-1 and AsPC-1)) (UniProt P01106)
Experiment: affinity purification with mass spectrometry; proteomic analysis of c-Myc antibody co-IP samples from control and HDAC5-knockdown PANC-1 cells

Substance	binding
Tripartite motif containing 33 (TRIM33) (from UniProt Q9UPN9 1-1127) (enzyme)	binds
STIP1 homology and U-Box containing protein 1 (STUB1) (from UniProt Q9UNE7 1-303) (enzyme)	binds
NEDD4 (from UniProt P46934 1-1319) (enzyme)	binds

These are yes or no findings as the source states them, for the method shown. Binding seen in cells or lysates may run through a third protein. Here binding means that the protein was enriched with, or labelled near, the bait; the list need not be complete.
